Reference: US5877009, “Isolated ApoA-I gene regulatory sequence elements” (Trustees of Boston University)
For part of these data: Results from cells or extracts need not show a direct contact. For part of these data: Tags and fusion partners may be left off the protein sequences shown. For part of these data: For at least one entry, the source does not settle the construct or the ends of the probe. For part of these data: A negative result means that nothing was seen under these conditions.

Chains of the proteins cited; added tags and fusions are not shown. A line that says so, or that is headed by a name, gives the form on record, which may keep a tag or linker.
HNF-4 (Rattus norvegicus), one chain, as listed by the source: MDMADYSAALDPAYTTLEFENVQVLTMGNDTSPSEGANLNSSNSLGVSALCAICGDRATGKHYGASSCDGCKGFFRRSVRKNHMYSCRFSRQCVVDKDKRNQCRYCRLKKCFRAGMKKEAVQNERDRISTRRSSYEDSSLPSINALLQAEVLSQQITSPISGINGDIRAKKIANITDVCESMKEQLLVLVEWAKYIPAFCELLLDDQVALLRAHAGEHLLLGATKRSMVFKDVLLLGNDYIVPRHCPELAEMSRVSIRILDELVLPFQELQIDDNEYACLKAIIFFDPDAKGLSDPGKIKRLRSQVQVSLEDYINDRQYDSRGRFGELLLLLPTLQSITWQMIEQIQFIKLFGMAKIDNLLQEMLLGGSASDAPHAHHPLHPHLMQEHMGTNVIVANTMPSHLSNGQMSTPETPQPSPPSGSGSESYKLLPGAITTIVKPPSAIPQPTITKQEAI

Experiments:
AID2 (Rattus norvegicus) = test: EMSA; settings: fraction active in DNA binding; protein in an extract; protein details: liver, heparin-agarose and Mono Q fraction; label: 32P
[1] = tested on: AID1 (LF-A1) (Rattus norvegicus); test: EMSA; settings: fraction active in DNA binding; purified native protein; protein details: liver, DNA affinity purified; label: 32P
[2] = tested on: CIIIC1 (Rattus norvegicus); test: EMSA; settings: protein in an extract
[3] = tested on: AIIN3 (Rattus norvegicus); test: EMSA; settings: methylation interference mapped G contacts; protein in an extract; protein details: liver nuclear extract, heat-labile
[4] = tested on: CIIIB1 (Rattus norvegicus); test: EMSA; settings: purified native protein
[5] = tested on: HNF-4 (Rattus norvegicus); test: EMSA; settings: complexes analysed by methylation interference; protein in a lysate after overexpression; protein details: COS-1, pMT2; label: 32P
ARP-1 = target: T1, ARP-1 (UniProt P24468); test: EMSA; settings: complexes analysed by methylation interference; protein in a lysate after overexpression; protein details: COS-1, pMT2; label: 32P
T1 sequence (looked up): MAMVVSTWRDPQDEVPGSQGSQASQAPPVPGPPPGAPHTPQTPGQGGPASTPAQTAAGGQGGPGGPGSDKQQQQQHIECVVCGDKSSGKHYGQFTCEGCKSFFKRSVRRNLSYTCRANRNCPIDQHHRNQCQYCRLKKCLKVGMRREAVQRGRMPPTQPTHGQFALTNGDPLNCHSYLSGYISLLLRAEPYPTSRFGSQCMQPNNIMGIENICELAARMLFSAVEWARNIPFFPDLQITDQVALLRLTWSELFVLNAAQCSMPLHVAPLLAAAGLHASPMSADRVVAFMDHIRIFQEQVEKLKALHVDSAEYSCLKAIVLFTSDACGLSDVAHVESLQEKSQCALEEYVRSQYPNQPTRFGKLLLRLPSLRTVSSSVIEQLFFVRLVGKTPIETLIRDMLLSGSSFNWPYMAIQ

EAR-2 (Homo sapiens) = target: T2, EAR-2 (Homo sapiens) (UniProt P10588); test: EMSA; settings: complexes analysed by methylation interference; protein in a lysate after overexpression; protein details: COS-1, pMT2; label: 32P
T2 sequence (looked up, limits assumed): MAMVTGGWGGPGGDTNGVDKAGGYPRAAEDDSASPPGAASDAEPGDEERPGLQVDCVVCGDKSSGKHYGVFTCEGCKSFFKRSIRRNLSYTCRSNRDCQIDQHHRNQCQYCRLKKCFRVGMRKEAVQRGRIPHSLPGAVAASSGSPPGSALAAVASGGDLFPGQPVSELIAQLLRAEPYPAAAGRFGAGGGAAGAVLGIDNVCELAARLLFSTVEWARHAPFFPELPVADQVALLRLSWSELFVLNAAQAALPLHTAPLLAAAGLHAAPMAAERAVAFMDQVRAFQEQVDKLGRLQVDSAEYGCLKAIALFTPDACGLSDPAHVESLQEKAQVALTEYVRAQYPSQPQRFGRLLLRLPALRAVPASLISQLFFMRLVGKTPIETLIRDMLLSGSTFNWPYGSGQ

EAR-3 (Homo sapiens) = target: T3, EAR-3 (Homo sapiens) (UniProt P10589); test: EMSA; settings: complexes analysed by methylation interference; protein in a lysate after overexpression; protein details: COS-1, pMT2; label: 32P
T3 sequence (looked up, limits assumed): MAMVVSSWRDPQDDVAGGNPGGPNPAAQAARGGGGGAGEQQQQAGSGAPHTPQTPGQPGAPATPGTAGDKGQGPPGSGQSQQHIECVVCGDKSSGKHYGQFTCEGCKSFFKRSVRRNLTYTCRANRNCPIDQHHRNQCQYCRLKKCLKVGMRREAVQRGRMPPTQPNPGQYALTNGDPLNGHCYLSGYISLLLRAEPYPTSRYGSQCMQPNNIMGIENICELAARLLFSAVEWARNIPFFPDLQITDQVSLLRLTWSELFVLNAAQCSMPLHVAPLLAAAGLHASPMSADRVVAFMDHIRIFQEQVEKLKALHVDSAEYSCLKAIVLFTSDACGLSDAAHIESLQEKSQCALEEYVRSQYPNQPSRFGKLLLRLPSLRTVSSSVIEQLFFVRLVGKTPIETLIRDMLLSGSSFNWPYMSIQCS

[6] = tested on: CIIIB2 (Rattus norvegicus); test: EMSA; settings: protein in an extract
[7] = tested on: CIIIB1 (Rattus norvegicus); test: binding assay; settings: affinity column ligand and photocross-linking; purified native protein; variant of CIIIB(WT) apoCIII -92 to -67
[8] = tested on: AIIAB1 (Rattus norvegicus); test: EMSA; settings: protein in an extract

“CCCACTGAACCCTTGACCCCTGCC (double strand) [apoA-I element D (-215 to -191)]”: binds (AID2 (Rattus norvegicus)); binds [1].

“CTTCCTGTTGCATTCAAGTCCA (double strand) [apoA-II element D (-276 to -255)]”: binds [2].

“GATATCTATTTAACTGATTTCACCC (double strand) [apoA-II element N (-903 to -879)]”: binds [3].

“GCCCCTGCTGACTCAATATTGGCTAATCACT (double strand) [apoA-II element L (-803 to -773)]”: binds ([4]; methylation interference G -794 and -797).

“GGTCAGCAGGTGACCTTTGCCCAGCG (double strand) [CIIIB(WT) apoCIII -92 to -67]”: binds [5]; binds (ARP-1); binds ([4]; purification followed with this probe, label: 32P). “GGTCAGCAGGTGACCTTTGCCCAGCG (double strand) [CIIIB(WT) apoCIII -92 to -67]”: binds (EAR-2 (Homo sapiens)); binds (EAR-3 (Homo sapiens)); binds ([6]; probe binds both CIIIB1 and CIIIB2, label: 32P).

“GGTCAGCAGGTGACGACAGA (double strand) [CIIIBM5]”: binds [7]; no binding ([6]; CITED Ogami et al. 1990, variant of CIIIB(WT) apoCIII -92 to -67, cited from earlier work).

“TAAGGTGATCAAATGACC (double strand) [apoA-II element K (-760 to -743)]”: binds [4]; binds [8].
